Source: PubChem BioAssay AID1159578 (Peter MacCallum Cancer Centre, 2015)
In all, the deposit lists about 18,000 reagents; this is an unselected part. In the full data, about 1,030 (5.7%) were called active. 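Inactive calls also include pools with fewer than 3300 nuclei, whose migration was not assessed.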 Raw values vary from plate to plate and are shown uncorrected. Entries without a mark were called inactive. Not all columns of the deposit are shown.

- Assay: 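siRNA pools altering how lymphatic endothelial cells close a scratch wound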 (primary screen)
- System: human lymphatic endothelial cells
- Knock-down reagent: siRNA pool against human genes, 40 nM
- Timing: 48 h after transfection
- Read-out: 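Cells stained with dye and imaged after a scratch; covered wound area and nuclei counted, duplicates averaged, migration set against mock wells and turned into a robust z-score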
- Direction: migration robust z-score: higher = faster migration into the scratch; nuclei per well: higher = more cells in the well
- Active means: 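Pools averaging fewer than 3300 nuclei are never called; remaining pools count as changed when migration robust z lies outside -2 to 2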
- Calls: active = migration changed; inactive = no migration change, or too few cells

The first 3 entries as a preview:
OR2A2 (olfactory receptor family 2 subfamily A member 2) → migration robust z-score = -0.92; migration class with cell-count check = migration z between -2 and 2; enough cells; nuclei per well, duplicate mean = 5926
SCT (secretin) → migration robust z-score = -0.56; migration class with cell-count check = migration z between -2 and 2; enough cells; nuclei per well, duplicate mean = 4806
GALNT14 (polypeptide N-acetylgalactosaminyltransferase 14) → migration robust z-score = 0.47; migration class with cell-count check = migration z between -2 and 2; enough cells; nuclei per well, duplicate mean = 7006

Main list, repeating the preview:
OR2A2 (olfactory receptor family 2 subfamily A member 2) → migration robust z-score = -0.92; migration class with cell-count check = migration z between -2 and 2; enough cells; nuclei per well, duplicate mean = 5926
SCT (secretin) → migration robust z-score = -0.56; migration class with cell-count check = migration z between -2 and 2; enough cells; nuclei per well, duplicate mean = 4806
GALNT14 (polypeptide N-acetylgalactosaminyltransferase 14) → migration robust z-score = 0.47; migration class with cell-count check = migration z between -2 and 2; enough cells; nuclei per well, duplicate mean = 7006
RFLNB (refilin B) → migration robust z-score = -1.68; migration class with cell-count check = migration z between -2 and 2; enough cells; nuclei per well, duplicate mean = 6807
MRPL36 (mitochondrial ribosomal protein L36) → migration robust z-score = -0.6; migration class with cell-count check = migration z between -2 and 2; enough cells; nuclei per well, duplicate mean = 3636
ZFPM2 (zinc finger protein, FOG family member 2) → migration robust z-score = -1.71; migration class with cell-count check = migration z between -2 and 2; enough cells; nuclei per well, duplicate mean = 4909
PRRT3 (proline rich transmembrane protein 3) → migration robust z-score = -0.6; migration class with cell-count check = migration z between -2 and 2; enough cells; nuclei per well, duplicate mean = 6024
OVCH2 (ovochymase 2) → migration robust z-score = 0.76; migration class with cell-count check = migration z between -2 and 2; enough cells; nuclei per well, duplicate mean = 7054
RASSF6 (Ras association domain family member 6) → migration robust z-score = 0.24; migration class with cell-count check = migration z between -2 and 2; enough cells; nuclei per well, duplicate mean = 4917
ASCL2 (achaete-scute family bHLH transcription factor 2) → migration robust z-score = 1.36; migration class with cell-count check = migration z between -2 and 2; enough cells; nuclei per well, duplicate mean = 5822
KRT74 (keratin 74) → migration robust z-score = -0.08; migration class with cell-count check = migration z between -2 and 2; enough cells; nuclei per well, duplicate mean = 5948
TYMSOS (TYMS opposite strand RNA) → migration robust z-score = -1.84; migration class with cell-count check = migration z between -2 and 2; enough cells; nuclei per well, duplicate mean = 5720
OR4A15 (olfactory receptor family 4 subfamily A member 15) → migration robust z-score = 1.5; migration class with cell-count check = migration z between -2 and 2; enough cells; nuclei per well, duplicate mean = 7142
RBM22 (RNA binding motif protein 22) → migration robust z-score = -1.21; migration class with cell-count check = migration z between -2 and 2; enough cells; nuclei per well, duplicate mean = 4909
MRPL19 (mitochondrial ribosomal protein L19) → migration robust z-score = 0.17; migration class with cell-count check = migration z between -2 and 2; enough cells; nuclei per well, duplicate mean = 6524
GXYLT2 (glucoside xylosyltransferase 2) → migration robust z-score = 0.12; migration class with cell-count check = migration z between -2 and 2; enough cells; nuclei per well, duplicate mean = 5714
OR4A5 (olfactory receptor family 4 subfamily A member 5) → migration robust z-score = -0.79; migration class with cell-count check = migration z between -2 and 2; enough cells; nuclei per well, duplicate mean = 5799
MRPL42 (mitochondrial ribosomal protein L42) → migration robust z-score = -0.56; migration class with cell-count check = migration z between -2 and 2; enough cells; nuclei per well, duplicate mean = 5462
GLCE (glucuronic acid epimerase) → migration robust z-score = 2.16 (active); migration class with cell-count check = migration z above 2; enough cells; nuclei per well, duplicate mean = 5648
TMEM50B (transmembrane protein 50B) → migration robust z-score = -0.06; migration class with cell-count check = migration z between -2 and 2; enough cells; nuclei per well, duplicate mean = 5509
CLN8 (CLN8 transmembrane ER and ERGIC protein) → migration robust z-score = 1.44; migration class with cell-count check = migration z between -2 and 2; enough cells; nuclei per well, duplicate mean = 7319
DNAJB9 (DnaJ heat shock protein family (Hsp40) member B9) → migration robust z-score = -0.14; migration class with cell-count check = migration z between -2 and 2; enough cells; nuclei per well, duplicate mean = 5656
LGALS12 (galectin 12) → migration robust z-score = 1.76; migration class with cell-count check = migration z between -2 and 2; enough cells; nuclei per well, duplicate mean = 5436
ZNF221 (zinc finger protein 221) → migration robust z-score = -1.15; migration class with cell-count check = migration z between -2 and 2; enough cells; nuclei per well, duplicate mean = 5950
GGTLC1 (gamma-glutamyltransferase light chain 1) → migration robust z-score = -1.17; migration class with cell-count check = migration z between -2 and 2; enough cells; nuclei per well, duplicate mean = 5503
TDRD6 (tudor domain containing 6) → migration robust z-score = -1.05; migration class with cell-count check = migration z between -2 and 2; enough cells; nuclei per well, duplicate mean = 5902
FAM111B (FAM111 trypsin like peptidase B) → migration robust z-score = 0.44; migration class with cell-count check = migration z between -2 and 2; enough cells; nuclei per well, duplicate mean = 5874
